Experimental data: paper PMC3392214

Sequences of proteins named here, by UniProt entry; tags and fusion partners are left off. Residues count along the entry.
UniProt Q86XT4: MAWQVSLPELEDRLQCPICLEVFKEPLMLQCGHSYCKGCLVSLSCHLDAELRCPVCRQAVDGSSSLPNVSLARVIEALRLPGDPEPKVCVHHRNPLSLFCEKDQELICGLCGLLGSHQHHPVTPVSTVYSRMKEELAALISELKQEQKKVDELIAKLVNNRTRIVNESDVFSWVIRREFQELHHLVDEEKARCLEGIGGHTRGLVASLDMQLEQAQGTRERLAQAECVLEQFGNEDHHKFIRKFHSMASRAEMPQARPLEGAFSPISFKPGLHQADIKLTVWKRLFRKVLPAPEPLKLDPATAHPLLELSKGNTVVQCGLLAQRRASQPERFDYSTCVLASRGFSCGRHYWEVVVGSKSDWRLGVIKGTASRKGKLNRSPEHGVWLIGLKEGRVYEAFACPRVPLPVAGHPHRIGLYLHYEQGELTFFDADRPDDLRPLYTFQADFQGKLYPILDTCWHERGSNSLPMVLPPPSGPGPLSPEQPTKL
UniProt P63104: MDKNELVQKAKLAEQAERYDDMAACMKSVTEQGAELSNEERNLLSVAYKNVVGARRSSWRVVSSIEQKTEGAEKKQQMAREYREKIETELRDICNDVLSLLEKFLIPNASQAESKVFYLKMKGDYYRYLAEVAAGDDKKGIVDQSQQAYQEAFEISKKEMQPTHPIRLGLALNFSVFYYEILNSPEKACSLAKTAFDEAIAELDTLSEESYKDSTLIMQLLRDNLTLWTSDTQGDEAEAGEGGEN
UniProt P14625, residues 22-803: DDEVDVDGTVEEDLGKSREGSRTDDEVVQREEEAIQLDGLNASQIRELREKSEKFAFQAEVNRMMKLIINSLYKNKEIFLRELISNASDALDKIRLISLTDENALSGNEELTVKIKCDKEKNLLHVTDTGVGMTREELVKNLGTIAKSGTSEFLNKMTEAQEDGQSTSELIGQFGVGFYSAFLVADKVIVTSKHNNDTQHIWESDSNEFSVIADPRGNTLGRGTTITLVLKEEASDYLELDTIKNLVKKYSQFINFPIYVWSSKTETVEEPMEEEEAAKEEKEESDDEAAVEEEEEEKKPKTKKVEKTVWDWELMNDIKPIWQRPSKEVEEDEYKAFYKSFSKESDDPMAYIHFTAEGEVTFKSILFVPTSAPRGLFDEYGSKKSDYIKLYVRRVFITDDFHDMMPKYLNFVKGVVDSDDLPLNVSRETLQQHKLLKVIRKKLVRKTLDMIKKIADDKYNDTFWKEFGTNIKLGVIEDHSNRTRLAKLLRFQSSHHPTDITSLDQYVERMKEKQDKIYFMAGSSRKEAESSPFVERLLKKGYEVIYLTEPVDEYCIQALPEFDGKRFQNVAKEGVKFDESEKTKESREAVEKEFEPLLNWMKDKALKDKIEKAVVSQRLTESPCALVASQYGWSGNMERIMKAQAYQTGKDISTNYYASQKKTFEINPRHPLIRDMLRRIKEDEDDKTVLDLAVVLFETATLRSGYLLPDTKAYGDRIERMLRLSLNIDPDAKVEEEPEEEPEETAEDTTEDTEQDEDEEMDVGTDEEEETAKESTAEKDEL
UniProt P23284, residues 34-216: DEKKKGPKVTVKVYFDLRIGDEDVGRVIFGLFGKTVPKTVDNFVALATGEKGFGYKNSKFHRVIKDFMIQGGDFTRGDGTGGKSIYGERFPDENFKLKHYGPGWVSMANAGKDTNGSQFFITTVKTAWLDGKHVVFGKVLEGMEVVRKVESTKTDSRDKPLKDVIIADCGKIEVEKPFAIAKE

Target: FLAG-tagged TRIM50 (UniProt Q86XT4)
Assay: affinity purification with mass spectrometry; FLAG-TRIM50#3 and FLAG#3 lysates (PBS, 0.5% NP-40) on M2 anti-FLAG agarose, washed with lysis buffer with 150 mM NaCl, eluted with FLAG peptide, SDS-PAGE bands, nanoLC-MS/MS

For 14-3-3 zeta (from UniProt P63104 1-245), the binding was “binds”.

With HSP90B1 (from UniProt P14625 22-803) the binding was “binds”.

With PPIB (from UniProt P23284 34-216) the binding was “binds”.

“p62 (Sequestosome 1/p62) (from UniProt Q13501 1-440)” was tested, and the binding was “binds”.

B1: Serpin H1 (protein, UniProt P50454 19-418)
chain: AEVKKPAAAAAPGTAEKLSPKAATLAERSAGLAFSLYQAMAKDQAVENILVSPVVVASSLGLVSLGGKATTASQAKAVLSAEQLRDEEVHAGLGELLRSLSNSTARNVTWKLGSRLYGPSSVSFADDFVRSSKQHYNCEHSKINFRDKRSALQSINEWAAQTTDGKLPEVTKDVERTDGALLVNAMFFKPHWDEKFHHKMVDNRGFMVTRSYTVGVMMMHRTGLYNYYDDEKEKLQIVEMPLAHKLSSLIILMPHHVEPLERLEKLLTKEQLKIWMGKMQKKAVAISLPKGVVEVTHDLQKHLAGLGLTEAIDKNKADLSRMSGKKDLYLASVFHATAFELDTDGNPFDQDIYGREELRSPKLFYADHPFIFLVRDTQSGSLLFIGRLVRPKGDKMRDEL
For B1, the binding was “binds”.

B2: 14-3-3 eta (protein, UniProt Q04917 1-246)
chain: MGDREQLLQRARLAEQAERYDDMASAMKAVTELNEPLSNEDRNLLSVAYKNVVGARRSSWRVISSIEQKTMADGNEKKLEKVKAYREKIEKELETVCNDVLSLLDKFLIKNCNDFQYESKVFYLKMKGDYYRYLAEVASGEKKNSVVEASEAAYKEAFEISKEQMQPTHPIRLGLALNFSVFYYEIQNAPEQACLLAKQAFDDAIAELDTLNEDSYKDSTLIMQLLRDNLTLWTSDQQDEEAGEGN
For B2, the binding was “binds”.

No constants are given. Whether binding was seen depends on the method and setting. In cells and extracts the contact can be indirect. A yes stands for co-enrichment or nearness to the bait. Other partners may have been found.
